Experimental data taken from patent US20210052701A1, “Methods of Treating Vascular Leakage Using CXCL12 Peptides” (The Medical College of Wisconsin, Inc., priority 2018, published 2021).
Some results were stated once for a whole list of compounds, not compound by compound.

Tested on: hPPAEC
Test: Effects of CXCR4 agonists / CXCL12 variants on thrombin-induced impairment of hPPAEC monolayer permeability
Format: cell-based, human
Conditions: end-point t=255 min; thrombin 35 nM; read-out: EC50 to inhibit thrombin-mediated hyper-permeability of hPPAEC
Protocol: FIGS. 3A-3D show effects of CXCL12 and ubiquitin on thrombin-induced impairment of hPPAEC monolayer permeability. hPPAEC were grown to a confluent monolayer on collagen-coated permeable membranes. (A) hPPAEC were pre-treated with vehicle, 100 nM of CXCL12 or ubiquitin for 10 minutes, as indicated, and then exposed to thrombin (50 nM), followed by the addition of FITC-dextran. Vehicle: no thrombin. Endothelial permeability was assessed by measuring the amount of FITC-dextran that permeated through the cell monolayer. No cells: 100% permeability (open circles). RFU: Relative fluorescence units. N=3 in quadruplicate. *: p<0.05 vs. vehicle/thrombin. (B-D) hPPAEC were exposed to 35 nM of thrombin or vehicle. […] Endothelial permeability was assessed by measuring the amount of FITC-dextran that permeated through the cell monolayer. RFU: Relative fluorescence units. […]
In vitro vascular permeability assays—Permeability assays were obtained from Millipore (ECM642) and performed as per manufacturer's instructions. […] Fluorescein isothiocyanate (FITC)-dextran (20 μg/mL) was then added on top of the monolayer and the amount of FITC-dextran that permeated through the monolayer was quantified by measuring fluorescence in a Synergy 2 Multi-mode Microplate Reader (BioTek, Winooski, Vt.) at various time points over a 255 min time period.

For “CXCL12 R47E: CXCL12 mutant which activates CXCR4 with reduced potency”, the EC50 was 0.5 to 50 nM.

B1: CXCL12 K27A/R41A/R47A: CXCL12 mutant with significantly reduced heparan sulfate proteoglycan binding properties (protein)
chain: KPVSLSYRCPCRFFESHVARANVKHLAILNTPNCALQIVAALKNNNAQVCIDPKLKWIQEYLEKALNK
In the case of B1, the EC50 is reported as 0.05 to 0.5 nM.
